Assay results: patent US9073935B2, “Substituted benzylspiroindolin-2-one analogs as positive allosteric modulators of the muscarinic acetylcholine receptor M1” (VANDERBILT UNIVERSITY, priority 2011, dated 2015)

By UniProt entry, the sequences of proteins in these tests, tags left out.
UniProt P11229, whole entry: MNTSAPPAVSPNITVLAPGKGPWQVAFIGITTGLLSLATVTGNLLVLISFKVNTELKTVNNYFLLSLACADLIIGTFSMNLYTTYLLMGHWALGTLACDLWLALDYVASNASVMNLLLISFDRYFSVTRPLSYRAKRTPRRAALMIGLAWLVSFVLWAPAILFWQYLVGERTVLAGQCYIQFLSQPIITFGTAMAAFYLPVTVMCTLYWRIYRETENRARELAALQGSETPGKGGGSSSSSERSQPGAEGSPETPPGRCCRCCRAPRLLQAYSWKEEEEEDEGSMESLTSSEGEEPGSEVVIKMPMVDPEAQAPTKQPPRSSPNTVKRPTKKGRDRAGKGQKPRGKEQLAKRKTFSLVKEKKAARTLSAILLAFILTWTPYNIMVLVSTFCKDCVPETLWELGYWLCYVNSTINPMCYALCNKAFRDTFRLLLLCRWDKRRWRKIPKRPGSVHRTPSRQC

Target: mAChR M1 (UniProt P11229)
Assay: mAChR M1 cell-based functional assay (calcium mobilization, potentiation of EC20 acetylcholine response)
Settings: for Emax: % ACh maximum at 30 μM; for EC50: CHO-K1 cells expressing mAChR M1, increase in EC20 acetylcholine response, >10 μM estimated where no plateau in the curve

| Emax [%] | EC50 [µM] | SMILES |
| --- | --- | --- |
| 80 | 1.8 | Cn1cc(-c2ccc(CN3C(=O)C4(CCN(C5CCCC5)C4)c4ccccc43)c(F)c2)cn1 (single isomer, unassigned) [B6] |
| 37 | > 10 | Cn1cc(-c2ccc(CN3C(=O)C4(CCN(C5CCCC5)C4)c4ccccc43)c(F)c2)cn1 (single isomer, unassigned) [B70] |

The match of structure and compound is tentative.
